Values from PubChem BioAssay AID1259285 (Sanger Institute, 2017).
Shown is an unselected part of 794 reagents. 20 of all reagents (2.5%) were called active. 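Calls rest on the drug-free arm alone and ignore synergy scores; viability ratios seem to be capped at 1.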 Unmarked entries are inactive. Further read-outs or replicates are left out here. Not given: the amount of reagent, the time to read-out.

Aim: 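Kinase knock-downs that reduce colorectal cancer cell viability or act with drugs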 (primary screen)
Cell system: human HCC56 colorectal cancer cells
Reagent: siRNA pool against human genes
Treatment: DMSO vehicle, or anchor drug BYL719 at 1 µM, cetuximab at 5 µg/ml, or trametinib at 10 nM
Measurement: 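Viability as a ratio to non-targeting pool wells, averaged over replicates and turned into a robust z-score; synergy scores with BYL719, cetuximab or trametinib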
Direction: viability robust z-score, no drug: higher = more viable cells, weaker knock-down effect; viability vs non-targeting pool, no drug: higher = more viable cells
Call rule: 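a knock-down counts as essential if its viability z-score without drug is under -3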
Calls: active = essential without drug; inactive = no change without drug

{"gene":"RSKR","viability robust z-score, no drug":0.458,"viability vs non-targeting pool, no drug":1}
{"gene":"PKIB","viability robust z-score, no drug":0.458,"viability vs non-targeting pool, no drug":1}
{"gene":"PSTK","viability robust z-score, no drug":0.458,"viability vs non-targeting pool, no drug":1}
{"gene":"SMG1","viability robust z-score, no drug":0.0554,"viability vs non-targeting pool, no drug":0.965}
{"gene":"CDK6","viability robust z-score, no drug":-0.697,"viability vs non-targeting pool, no drug":0.901}
{"gene":"MAGI1","viability robust z-score, no drug":0.458,"viability vs non-targeting pool, no drug":1}
{"gene":"LMBR1","viability robust z-score, no drug":0.458,"viability vs non-targeting pool, no drug":1}
{"gene":"CASK","viability robust z-score, no drug":-1.6,"viability vs non-targeting pool, no drug":0.823}
{"gene":"PIK3C3","viability robust z-score, no drug":0.458,"viability vs non-targeting pool, no drug":1}
{"gene":"OBSCN","viability robust z-score, no drug":0.458,"viability vs non-targeting pool, no drug":1}
{"gene":"STK35","viability robust z-score, no drug":0.284,"viability vs non-targeting pool, no drug":0.985}
{"gene":"SRC","viability robust z-score, no drug":0.458,"viability vs non-targeting pool, no drug":1}
{"gene":"FGFRL1","viability robust z-score, no drug":0.458,"viability vs non-targeting pool, no drug":1}
{"gene":"PHKB","viability robust z-score, no drug":0.458,"viability vs non-targeting pool, no drug":1}
{"gene":"MLKL","viability robust z-score, no drug":0.458,"viability vs non-targeting pool, no drug":1}
{"gene":"ACVR1","viability robust z-score, no drug":-0.23,"viability vs non-targeting pool, no drug":0.941}
{"gene":"PTEN","viability robust z-score, no drug":0.458,"viability vs non-targeting pool, no drug":1}

Next part (3 carried over from the part before).
{"gene":"MLKL","viability robust z-score, no drug":0.458,"viability vs non-targeting pool, no drug":1}
{"gene":"ACVR1","viability robust z-score, no drug":-0.23,"viability vs non-targeting pool, no drug":0.941}
{"gene":"PTEN","viability robust z-score, no drug":0.458,"viability vs non-targeting pool, no drug":1}
{"gene":"STYK1","viability robust z-score, no drug":0.0285,"viability vs non-targeting pool, no drug":0.963}
{"gene":"PDIK1L","viability robust z-score, no drug":0.458,"viability vs non-targeting pool, no drug":1}
{"gene":"RPS6KC1","viability robust z-score, no drug":0.458,"viability vs non-targeting pool, no drug":1}
{"gene":"MAP3K6","viability robust z-score, no drug":0.458,"viability vs non-targeting pool, no drug":1}
{"gene":"SHPK","viability robust z-score, no drug":0.458,"viability vs non-targeting pool, no drug":1}
{"gene":"EIF2AK2","viability robust z-score, no drug":0.458,"viability vs non-targeting pool, no drug":1}
{"gene":"DGKB","viability robust z-score, no drug":0.0169,"viability vs non-targeting pool, no drug":0.962}
{"gene":"CALM3","viability robust z-score, no drug":0.458,"viability vs non-targeting pool, no drug":1}
{"gene":"IRAK1","viability robust z-score, no drug":0.458,"viability vs non-targeting pool, no drug":1}
{"gene":"GRK5","viability robust z-score, no drug":0.458,"viability vs non-targeting pool, no drug":1}
{"gene":"STK32B","viability robust z-score, no drug":-0.421,"viability vs non-targeting pool, no drug":0.924}
{"gene":"CAMK2D","viability robust z-score, no drug":0.458,"viability vs non-targeting pool, no drug":1}
{"gene":"JAK1","viability robust z-score, no drug":0.458,"viability vs non-targeting pool, no drug":1}
{"gene":"BCR","viability robust z-score, no drug":-0.942,"viability vs non-targeting pool, no drug":0.88}
{"gene":"ROR1","viability robust z-score, no drug":0.458,"viability vs non-targeting pool, no drug":1}
{"gene":"FYN","viability robust z-score, no drug":0.458,"viability vs non-targeting pool, no drug":1}
{"gene":"IRAK3","viability robust z-score, no drug":-0.299,"viability vs non-targeting pool, no drug":0.935}
{"gene":"MAPK1","viability robust z-score, no drug":-2.08,"viability vs non-targeting pool, no drug":0.782}
{"gene":"DLG3","viability robust z-score, no drug":0.458,"viability vs non-targeting pool, no drug":1}
